Source: PMC10687581
Results are given in words; binding and its absence hold for the method and conditions named. In cells and extracts the contact can be indirect.

Sequences of proteins named here, by UniProt entry; tags and fusion partners are left off.
UniProt P46937: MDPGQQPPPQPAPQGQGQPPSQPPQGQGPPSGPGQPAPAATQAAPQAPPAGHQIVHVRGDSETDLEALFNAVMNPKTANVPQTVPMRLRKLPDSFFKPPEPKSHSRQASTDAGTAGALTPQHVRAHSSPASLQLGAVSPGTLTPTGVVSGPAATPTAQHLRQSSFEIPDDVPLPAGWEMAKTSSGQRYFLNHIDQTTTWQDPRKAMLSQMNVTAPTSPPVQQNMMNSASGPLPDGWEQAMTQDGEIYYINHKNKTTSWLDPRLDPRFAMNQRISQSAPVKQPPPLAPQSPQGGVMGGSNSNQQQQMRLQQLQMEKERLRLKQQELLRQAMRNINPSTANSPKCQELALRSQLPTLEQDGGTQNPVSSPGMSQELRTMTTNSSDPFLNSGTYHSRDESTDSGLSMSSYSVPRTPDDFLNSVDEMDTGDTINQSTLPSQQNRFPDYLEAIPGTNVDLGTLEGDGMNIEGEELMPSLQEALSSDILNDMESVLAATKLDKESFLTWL
UniProt Q99717: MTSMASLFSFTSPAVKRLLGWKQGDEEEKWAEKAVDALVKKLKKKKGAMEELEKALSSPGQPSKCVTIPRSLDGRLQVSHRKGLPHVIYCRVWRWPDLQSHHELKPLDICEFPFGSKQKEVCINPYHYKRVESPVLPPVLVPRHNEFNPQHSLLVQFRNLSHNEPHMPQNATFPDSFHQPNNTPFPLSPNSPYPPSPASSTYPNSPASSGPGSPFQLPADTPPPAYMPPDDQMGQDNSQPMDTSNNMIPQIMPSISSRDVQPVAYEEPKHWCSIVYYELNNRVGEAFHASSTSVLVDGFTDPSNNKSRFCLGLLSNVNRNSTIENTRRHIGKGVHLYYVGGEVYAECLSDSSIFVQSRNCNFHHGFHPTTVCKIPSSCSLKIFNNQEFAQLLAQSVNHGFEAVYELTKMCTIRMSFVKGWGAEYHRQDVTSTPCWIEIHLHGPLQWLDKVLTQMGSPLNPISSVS

Molecular target: Yes-associated protein (YAP) (human (endogenous in Huh7)) (UniProt P46937)
Experiment: co-IP; endogenous proteins in Huh7 lysates (RIPA buffer); cells treated with XMU-MP-1 or DMSO for 12 h; lysates incubated with monoclonal antibodies against YAP or SMAD overnight at 4 °C, protein A/G agarose beads, 3 washes with PBS, Western blot

With SMAD5 (from UniProt Q99717 1-465) the binding was “no binding”.
